Results from patent US9164109B2, “Use of probes for unbound metabolites” (priority 2006, dated 2015).
At least one compound was matched to its structure with a doubt left.

By UniProt entry, the sequences of proteins in these tests, tags left out. Residues count along the entry.
UniProt P02769, 25-607: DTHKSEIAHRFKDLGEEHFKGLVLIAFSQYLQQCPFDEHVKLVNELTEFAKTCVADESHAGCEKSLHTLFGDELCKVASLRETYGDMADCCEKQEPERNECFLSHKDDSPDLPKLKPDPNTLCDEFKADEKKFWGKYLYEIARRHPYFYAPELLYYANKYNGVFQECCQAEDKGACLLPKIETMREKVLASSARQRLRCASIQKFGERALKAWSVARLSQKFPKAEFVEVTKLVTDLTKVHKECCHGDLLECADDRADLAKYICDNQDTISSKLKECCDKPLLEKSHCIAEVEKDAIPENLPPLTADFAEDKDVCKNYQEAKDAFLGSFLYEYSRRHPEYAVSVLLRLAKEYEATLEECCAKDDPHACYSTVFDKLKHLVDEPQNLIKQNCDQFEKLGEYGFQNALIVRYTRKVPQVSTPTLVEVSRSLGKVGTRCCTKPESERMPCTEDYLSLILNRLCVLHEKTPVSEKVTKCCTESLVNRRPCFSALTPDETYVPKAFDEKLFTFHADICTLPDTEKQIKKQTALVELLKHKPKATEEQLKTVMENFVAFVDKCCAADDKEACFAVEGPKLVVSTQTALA

Molecular target: bovine serum albumin (BSA) (Bos taurus, UniProt P02769)
Test: FFAu profiles in mixtures of 5 FFA in equilibrium with BSA, measured with specific fluorescent probes
Type: binding
Conditions: Experiment; for Total FFA: from amount of FFA used, before 100 fold dilution
[1] = mixture 1:1:1:1:1, total FFAu 0.9 nM
[2] = mixture 1:1:1:1:1, total FFAu 20 nM
[3] = mixture 20:25:30:15:10, total FFAu 0.9 nM
[4] = mixture 20:25:30:15:10, total FFAu 20 nM
[5] = mixture 25:20:33:19:3, total FFAu 0.9 nM
[6] = Table 3, mixture 20:25:30:15:10

| SMILES | FFAu [1] | X (fraction of FFAui in the mixture) [1] | FFAu [2] | X (fraction of FFAui in the mixture) [2] | FFAu [3] | X (fraction of FFAui in the mixture) [3] | FFAu [4] | X (fraction of FFAui in the mixture) [4] | FFAu [5] | X (fraction of FFAui in the mixture) [5] | FFAu (Table 3, mixture 1:1:1:1:1) | X % of FFAu (Table 3, mixture 1:1:1:1:1) | X % of Total FFA (Table 3, mixture 1:1:1:1:1) | Total FFA (Table 3, mixture 1:1:1:1:1) | FFAu [6] | X % of FFAu [6] | X % of Total FFA [6] | Total FFA [6] |
| --- | --- | --- | --- | --- | --- | --- | --- | --- | --- | --- | --- | --- | --- | --- | --- | --- | --- | --- |
| CCCCC/C=C\C/C=C\CCCCCCCC(=O)O [LA, linoleate] | 0.183 nM | 20% | 4.71 nM | 24% | 0.235 nM | 26% | 6.25 nM | 32% | 0.201 nM | 21% | 0.66 nM | 21% | 15% | 169 µM | 0.82 nM | 25% | 20% | 212 µM |
| CCCCC/C=C\C/C=C\C/C=C\C/C=C\CCCC(=O)O [AA, arachidonate] | 0.200 nM | 22% |  | 32% | 0.170 nM | 19% | 5.52 nM | 29% | 0.259 nM | 27% | 0.73 nM | 23% | 10% | 115 µM | 0.78 nM | 24% | 11% | 115 µM |
